The test deals with Flag-RCC2 (UniProt Q9P258). The test can be described thus: affinity purification with mass spectrometry; Flag-RCC2 construct or empty vector overexpressed in HEK293T cells; gel bands digested with trypsin, LC-MS/MS (Q Exactive).

Protein sequences, listed by entry. Tags and fused reporters are not part of them.
UniProt Q9P258: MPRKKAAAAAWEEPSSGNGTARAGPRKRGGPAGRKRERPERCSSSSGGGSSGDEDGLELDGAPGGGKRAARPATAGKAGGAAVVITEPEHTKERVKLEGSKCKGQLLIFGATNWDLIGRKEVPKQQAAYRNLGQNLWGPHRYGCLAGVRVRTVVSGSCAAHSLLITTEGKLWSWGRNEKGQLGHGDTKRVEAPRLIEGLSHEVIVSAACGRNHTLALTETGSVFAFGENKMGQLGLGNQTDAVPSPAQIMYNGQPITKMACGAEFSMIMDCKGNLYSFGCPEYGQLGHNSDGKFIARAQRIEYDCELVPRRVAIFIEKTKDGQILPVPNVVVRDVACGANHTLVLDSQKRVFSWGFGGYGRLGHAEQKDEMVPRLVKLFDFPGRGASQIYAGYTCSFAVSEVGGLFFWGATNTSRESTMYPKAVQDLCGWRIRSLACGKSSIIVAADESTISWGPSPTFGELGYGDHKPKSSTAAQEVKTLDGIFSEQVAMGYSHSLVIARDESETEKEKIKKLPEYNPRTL
UniProt P08670: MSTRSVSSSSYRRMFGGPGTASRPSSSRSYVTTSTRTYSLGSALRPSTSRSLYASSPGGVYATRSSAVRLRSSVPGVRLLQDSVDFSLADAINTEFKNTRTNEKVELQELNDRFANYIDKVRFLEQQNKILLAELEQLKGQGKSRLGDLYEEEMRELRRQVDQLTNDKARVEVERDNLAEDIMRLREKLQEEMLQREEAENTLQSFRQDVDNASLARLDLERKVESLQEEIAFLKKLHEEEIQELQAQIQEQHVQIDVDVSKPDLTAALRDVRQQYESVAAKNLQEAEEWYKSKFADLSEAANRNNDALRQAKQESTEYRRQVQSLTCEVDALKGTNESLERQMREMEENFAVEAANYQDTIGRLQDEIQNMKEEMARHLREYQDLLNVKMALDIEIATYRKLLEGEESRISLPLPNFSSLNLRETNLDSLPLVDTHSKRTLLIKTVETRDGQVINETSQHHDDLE

Results are given in words; binding and its absence hold for the method and conditions named. In cells and extracts the contact can be indirect. A yes stands for co-enrichment or nearness to the bait. Other partners may have been found.

In the case of Vimentin (from UniProt P08670 1-466), the binding result is “binds”.
